Substitutions are numbered along the chain they refer to. These are yes or no findings as the source states them, for the method shown. Binding seen in cells or lysates may run through a third protein. Some entries that bind do so weakly or less than the wild type. For some of these results: Where a sequence is shown, tags or fusion partners need not be part of it.
Legend:
[1] = target: T1, human Flag-TRMT10C K173Q (M1) (human) (UniProt Q7L0Y3); assay: co-IP; anti-FLAG precipitation of WT or mutant Flag-TRMT10C from transfected AC16 and H9c2 cells; normal conditions, hypoxia, hypoxia with CPT1A overexpression; western blot for KPNA2, KPNA3, KPNA4
T1 sequence: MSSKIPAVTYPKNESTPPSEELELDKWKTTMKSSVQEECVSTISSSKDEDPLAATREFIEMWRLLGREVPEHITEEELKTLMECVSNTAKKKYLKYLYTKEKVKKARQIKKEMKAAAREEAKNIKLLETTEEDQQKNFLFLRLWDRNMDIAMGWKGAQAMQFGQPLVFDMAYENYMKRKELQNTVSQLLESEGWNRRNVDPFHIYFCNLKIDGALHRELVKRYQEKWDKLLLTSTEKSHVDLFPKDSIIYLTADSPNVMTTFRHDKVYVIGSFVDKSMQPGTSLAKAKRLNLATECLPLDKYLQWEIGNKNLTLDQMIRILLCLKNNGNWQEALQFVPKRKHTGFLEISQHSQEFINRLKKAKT

The chains behind the UniProt entries cited, without tags or fusion partners. Residues count along the entry.
UniProt B5DFG1, residues 78-580: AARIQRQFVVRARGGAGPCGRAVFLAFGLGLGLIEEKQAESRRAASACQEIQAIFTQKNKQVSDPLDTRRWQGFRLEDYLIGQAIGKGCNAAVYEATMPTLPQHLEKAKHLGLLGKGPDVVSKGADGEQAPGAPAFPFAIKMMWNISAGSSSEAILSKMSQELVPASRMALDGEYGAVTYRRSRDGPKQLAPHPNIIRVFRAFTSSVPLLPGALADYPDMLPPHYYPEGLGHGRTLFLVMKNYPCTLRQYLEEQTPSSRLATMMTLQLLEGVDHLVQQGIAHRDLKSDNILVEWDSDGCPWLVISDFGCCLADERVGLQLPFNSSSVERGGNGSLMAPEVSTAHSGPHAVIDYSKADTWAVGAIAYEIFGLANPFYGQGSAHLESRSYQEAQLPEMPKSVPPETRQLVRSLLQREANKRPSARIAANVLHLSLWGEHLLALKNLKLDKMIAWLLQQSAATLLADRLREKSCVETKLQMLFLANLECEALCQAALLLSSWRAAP
UniProt O00629: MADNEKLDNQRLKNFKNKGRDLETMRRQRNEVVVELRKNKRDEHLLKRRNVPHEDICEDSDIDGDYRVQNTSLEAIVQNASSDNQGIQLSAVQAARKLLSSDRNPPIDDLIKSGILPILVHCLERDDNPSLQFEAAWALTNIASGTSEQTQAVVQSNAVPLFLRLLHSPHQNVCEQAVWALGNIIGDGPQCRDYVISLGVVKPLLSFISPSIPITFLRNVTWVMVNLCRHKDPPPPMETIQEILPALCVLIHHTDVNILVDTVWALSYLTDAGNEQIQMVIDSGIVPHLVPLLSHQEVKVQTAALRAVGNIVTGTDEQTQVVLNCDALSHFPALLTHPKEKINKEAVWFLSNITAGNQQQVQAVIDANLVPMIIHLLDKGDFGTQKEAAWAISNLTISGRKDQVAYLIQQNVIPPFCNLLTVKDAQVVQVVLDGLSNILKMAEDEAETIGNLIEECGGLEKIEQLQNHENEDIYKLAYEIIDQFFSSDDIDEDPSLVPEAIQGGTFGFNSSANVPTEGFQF
UniProt Q9JK66: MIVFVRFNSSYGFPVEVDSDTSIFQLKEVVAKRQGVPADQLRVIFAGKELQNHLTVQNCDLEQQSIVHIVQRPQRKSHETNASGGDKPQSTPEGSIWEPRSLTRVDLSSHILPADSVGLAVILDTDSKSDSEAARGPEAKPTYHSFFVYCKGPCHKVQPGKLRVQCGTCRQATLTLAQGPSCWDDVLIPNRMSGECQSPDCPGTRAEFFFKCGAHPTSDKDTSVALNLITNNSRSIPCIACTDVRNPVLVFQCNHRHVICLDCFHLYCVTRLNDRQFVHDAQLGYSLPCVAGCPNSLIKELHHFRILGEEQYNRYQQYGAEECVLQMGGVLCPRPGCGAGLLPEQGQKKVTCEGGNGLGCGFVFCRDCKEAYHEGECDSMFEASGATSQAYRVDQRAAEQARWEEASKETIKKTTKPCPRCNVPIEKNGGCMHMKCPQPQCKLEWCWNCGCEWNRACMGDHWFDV

[2] = target: T2, human Flag-TRMT10C K173Q and K325Q (M3) (human) (UniProt Q7L0Y3); assay: as above
T2 sequence: T1 sequence with K286Q

[3] = target: T3, human Flag-TRMT10C K325Q (M2) (human) (UniProt Q7L0Y3); assay: as above
T3 sequence: T1 sequence with Q134K, K286Q

[4] = target: PINK1 (H9c2 cells) (rat (endogenous in H9c2)) (UniProt B5DFG1); assay: co-IP; anti-PINK1 precipitation from AC16 and H9c2 lysates; hypoxia, with TAFAZZIN and/or NLRX1 overexpression or TRMT10C knockdown; western blot for Parkin

KPNA4 (AC16 cells) (from UniProt O00629 1-521)
binding [1]: binds | binding [2]: binds | binding [3]: binds

Parkin (H9c2 cells) (from UniProt Q9JK66 1-465)
binding [4]: binds

Source: PMC12080399
